These results are taken from the supplement of paper PMC10849652.

Sequences of proteins named here, by UniProt entry; tags and fusion partners are left off. A change or cut given only in a name is not applied to a line headed by its entry.
UniProt Q8IWZ3: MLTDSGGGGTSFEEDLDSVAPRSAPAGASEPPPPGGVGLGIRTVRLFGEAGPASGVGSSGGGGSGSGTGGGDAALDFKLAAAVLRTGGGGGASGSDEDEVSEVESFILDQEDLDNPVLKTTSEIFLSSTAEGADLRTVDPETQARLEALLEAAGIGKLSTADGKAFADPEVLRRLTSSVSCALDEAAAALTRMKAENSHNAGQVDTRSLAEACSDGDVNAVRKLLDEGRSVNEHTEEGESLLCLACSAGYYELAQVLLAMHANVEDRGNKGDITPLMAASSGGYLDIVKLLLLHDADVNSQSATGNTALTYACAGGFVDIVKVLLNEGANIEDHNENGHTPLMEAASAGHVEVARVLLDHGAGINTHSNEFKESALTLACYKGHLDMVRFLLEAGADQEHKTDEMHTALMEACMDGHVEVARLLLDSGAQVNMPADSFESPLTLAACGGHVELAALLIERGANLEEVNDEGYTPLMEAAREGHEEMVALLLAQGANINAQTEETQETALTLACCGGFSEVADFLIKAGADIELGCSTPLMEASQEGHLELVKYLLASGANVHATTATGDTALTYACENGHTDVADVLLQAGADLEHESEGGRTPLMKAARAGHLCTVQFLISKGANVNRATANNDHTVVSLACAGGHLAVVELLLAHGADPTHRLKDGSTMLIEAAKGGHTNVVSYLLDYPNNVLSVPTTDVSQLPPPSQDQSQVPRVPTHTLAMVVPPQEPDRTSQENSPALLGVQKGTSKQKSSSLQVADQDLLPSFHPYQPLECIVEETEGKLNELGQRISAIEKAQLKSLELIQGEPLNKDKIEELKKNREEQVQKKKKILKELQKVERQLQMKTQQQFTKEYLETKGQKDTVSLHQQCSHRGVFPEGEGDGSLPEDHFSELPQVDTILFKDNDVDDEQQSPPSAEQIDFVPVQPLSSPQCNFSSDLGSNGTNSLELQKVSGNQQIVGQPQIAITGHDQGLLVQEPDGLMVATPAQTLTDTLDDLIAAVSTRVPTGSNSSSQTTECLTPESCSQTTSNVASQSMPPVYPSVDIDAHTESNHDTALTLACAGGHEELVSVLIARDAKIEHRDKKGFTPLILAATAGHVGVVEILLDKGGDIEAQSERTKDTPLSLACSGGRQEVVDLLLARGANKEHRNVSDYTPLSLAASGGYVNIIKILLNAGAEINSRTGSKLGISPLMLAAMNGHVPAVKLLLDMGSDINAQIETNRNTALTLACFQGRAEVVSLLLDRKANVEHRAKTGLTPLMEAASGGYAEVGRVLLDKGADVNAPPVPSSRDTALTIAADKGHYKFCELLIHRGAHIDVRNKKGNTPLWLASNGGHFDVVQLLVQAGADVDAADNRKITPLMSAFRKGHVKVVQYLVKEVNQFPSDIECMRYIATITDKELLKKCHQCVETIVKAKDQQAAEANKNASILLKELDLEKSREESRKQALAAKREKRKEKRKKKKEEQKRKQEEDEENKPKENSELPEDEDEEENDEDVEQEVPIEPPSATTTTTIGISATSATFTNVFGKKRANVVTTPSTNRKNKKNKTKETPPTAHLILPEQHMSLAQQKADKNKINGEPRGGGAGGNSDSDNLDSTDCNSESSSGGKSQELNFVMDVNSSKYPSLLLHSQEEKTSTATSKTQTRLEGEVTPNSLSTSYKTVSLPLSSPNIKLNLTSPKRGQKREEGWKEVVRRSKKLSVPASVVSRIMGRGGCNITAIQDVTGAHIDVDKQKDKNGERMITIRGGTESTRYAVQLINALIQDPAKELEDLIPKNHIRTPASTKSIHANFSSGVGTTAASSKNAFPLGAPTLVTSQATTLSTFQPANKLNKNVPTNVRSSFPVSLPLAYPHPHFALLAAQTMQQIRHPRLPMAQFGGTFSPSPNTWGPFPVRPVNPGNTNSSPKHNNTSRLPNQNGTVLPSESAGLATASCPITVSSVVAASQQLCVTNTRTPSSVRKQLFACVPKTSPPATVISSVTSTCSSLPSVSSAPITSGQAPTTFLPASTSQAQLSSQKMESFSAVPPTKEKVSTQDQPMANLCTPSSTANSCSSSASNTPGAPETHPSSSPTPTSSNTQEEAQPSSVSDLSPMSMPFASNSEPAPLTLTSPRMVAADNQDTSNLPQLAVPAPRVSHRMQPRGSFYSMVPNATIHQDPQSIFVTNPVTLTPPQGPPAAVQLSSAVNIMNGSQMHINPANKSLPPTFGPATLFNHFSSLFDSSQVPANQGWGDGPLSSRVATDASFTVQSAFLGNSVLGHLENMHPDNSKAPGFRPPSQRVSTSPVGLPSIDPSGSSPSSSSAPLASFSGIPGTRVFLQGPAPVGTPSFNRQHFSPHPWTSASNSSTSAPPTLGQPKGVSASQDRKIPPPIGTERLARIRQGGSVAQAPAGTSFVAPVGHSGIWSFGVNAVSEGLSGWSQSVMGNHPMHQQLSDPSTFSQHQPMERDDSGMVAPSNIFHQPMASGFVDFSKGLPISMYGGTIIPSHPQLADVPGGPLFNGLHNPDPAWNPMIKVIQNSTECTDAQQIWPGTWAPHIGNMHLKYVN
UniProt P61966: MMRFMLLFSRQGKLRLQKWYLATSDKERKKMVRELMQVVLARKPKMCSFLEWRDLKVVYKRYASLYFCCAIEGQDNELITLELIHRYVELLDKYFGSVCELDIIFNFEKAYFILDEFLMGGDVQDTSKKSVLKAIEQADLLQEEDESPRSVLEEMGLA
UniProt Q0VD83: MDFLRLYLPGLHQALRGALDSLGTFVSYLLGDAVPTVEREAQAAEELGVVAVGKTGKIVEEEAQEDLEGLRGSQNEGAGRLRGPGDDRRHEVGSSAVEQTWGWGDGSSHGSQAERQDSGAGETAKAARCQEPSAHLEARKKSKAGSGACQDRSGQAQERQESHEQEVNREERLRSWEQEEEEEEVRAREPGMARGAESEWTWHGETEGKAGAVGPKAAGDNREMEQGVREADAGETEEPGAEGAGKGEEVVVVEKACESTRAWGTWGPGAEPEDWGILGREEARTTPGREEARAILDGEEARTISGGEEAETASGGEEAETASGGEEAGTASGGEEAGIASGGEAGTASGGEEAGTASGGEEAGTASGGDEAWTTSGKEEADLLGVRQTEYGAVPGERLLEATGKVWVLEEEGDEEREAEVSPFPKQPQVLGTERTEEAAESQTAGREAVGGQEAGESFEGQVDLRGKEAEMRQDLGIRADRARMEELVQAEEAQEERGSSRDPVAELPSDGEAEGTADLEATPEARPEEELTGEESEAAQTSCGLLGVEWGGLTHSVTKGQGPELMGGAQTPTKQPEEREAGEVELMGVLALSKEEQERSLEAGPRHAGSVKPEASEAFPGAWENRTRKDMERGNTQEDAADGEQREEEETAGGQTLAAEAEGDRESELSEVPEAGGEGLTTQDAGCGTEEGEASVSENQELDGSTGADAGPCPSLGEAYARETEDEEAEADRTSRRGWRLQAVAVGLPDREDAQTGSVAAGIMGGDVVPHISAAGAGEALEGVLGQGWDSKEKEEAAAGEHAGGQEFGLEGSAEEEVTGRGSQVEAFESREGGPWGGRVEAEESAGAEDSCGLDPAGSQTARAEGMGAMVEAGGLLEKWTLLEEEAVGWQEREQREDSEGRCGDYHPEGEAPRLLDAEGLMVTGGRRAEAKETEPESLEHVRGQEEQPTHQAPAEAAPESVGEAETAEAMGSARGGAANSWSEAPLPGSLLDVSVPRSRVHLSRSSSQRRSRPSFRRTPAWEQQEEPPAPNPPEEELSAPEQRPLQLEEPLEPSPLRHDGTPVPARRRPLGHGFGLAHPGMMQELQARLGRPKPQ
UniProt Q06481, whole entry, looked up: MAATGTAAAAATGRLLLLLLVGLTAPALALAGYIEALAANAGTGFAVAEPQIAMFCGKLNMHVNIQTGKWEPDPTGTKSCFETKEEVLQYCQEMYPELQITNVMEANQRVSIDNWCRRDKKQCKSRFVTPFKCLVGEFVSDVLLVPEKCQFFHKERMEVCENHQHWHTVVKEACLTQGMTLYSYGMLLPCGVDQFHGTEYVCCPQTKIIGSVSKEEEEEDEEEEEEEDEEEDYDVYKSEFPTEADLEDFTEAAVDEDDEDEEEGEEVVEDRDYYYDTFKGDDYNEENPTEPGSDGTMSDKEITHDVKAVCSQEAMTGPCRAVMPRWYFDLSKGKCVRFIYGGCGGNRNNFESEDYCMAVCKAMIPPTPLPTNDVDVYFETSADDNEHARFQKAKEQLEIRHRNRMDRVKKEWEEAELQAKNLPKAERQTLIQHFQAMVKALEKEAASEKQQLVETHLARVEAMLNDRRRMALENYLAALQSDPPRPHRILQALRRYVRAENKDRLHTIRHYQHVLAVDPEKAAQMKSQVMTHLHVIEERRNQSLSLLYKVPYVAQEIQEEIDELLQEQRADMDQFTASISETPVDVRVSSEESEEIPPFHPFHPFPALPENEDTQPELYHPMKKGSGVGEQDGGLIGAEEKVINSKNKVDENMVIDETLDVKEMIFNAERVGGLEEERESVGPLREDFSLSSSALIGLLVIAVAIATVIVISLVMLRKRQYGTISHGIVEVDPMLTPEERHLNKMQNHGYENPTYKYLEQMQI
UniProt P53680: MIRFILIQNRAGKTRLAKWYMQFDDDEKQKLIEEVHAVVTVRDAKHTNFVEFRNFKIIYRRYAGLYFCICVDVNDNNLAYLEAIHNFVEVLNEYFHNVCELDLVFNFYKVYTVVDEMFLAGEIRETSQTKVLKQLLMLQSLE
UniProt P02654: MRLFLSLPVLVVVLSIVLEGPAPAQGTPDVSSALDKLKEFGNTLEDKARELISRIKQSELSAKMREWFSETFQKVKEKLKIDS
UniProt P10398: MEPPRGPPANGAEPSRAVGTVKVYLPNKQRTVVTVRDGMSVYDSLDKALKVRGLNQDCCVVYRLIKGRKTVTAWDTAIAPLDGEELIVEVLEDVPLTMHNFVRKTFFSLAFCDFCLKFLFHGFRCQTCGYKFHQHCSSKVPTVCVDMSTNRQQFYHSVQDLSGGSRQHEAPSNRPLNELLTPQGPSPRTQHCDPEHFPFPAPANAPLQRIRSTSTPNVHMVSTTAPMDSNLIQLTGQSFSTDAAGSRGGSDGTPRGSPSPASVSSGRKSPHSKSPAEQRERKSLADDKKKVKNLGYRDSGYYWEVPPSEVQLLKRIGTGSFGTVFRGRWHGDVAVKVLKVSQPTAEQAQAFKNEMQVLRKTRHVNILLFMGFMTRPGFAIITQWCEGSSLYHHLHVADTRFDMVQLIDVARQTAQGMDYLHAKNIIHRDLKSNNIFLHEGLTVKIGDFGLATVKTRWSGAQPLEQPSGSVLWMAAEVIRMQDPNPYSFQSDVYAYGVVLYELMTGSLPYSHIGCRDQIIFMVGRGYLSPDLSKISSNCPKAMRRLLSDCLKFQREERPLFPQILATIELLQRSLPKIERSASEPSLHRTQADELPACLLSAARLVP
UniProt P61204: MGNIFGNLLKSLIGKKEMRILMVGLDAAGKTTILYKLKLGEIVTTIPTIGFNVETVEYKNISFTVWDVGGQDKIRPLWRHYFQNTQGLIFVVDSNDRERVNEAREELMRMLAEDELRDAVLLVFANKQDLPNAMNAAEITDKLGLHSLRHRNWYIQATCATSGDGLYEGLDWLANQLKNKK
UniProt Q6NXT1: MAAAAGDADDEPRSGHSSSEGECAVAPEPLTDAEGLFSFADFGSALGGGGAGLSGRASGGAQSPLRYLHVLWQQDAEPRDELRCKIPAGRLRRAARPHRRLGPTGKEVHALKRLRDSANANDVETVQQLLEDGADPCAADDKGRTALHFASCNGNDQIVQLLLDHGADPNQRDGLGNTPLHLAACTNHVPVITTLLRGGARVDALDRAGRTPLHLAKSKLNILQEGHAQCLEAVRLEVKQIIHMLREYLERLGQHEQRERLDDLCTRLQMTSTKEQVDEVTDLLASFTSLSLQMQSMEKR
UniProt Q9UJX3, whole entry, looked up: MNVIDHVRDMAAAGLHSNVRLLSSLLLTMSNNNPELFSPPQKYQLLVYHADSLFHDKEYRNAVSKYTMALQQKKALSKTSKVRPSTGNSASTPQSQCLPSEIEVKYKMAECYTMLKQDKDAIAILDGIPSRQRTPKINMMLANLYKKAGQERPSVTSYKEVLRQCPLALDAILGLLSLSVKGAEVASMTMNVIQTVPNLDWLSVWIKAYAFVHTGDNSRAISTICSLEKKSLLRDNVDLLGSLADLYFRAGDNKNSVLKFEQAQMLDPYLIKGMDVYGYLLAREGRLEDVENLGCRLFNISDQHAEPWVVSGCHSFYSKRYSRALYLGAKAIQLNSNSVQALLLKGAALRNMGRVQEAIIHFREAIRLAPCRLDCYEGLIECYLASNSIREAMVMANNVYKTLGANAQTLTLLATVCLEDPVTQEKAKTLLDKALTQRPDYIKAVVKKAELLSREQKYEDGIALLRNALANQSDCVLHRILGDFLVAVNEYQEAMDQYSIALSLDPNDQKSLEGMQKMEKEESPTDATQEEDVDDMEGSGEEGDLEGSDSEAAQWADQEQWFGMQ

Common to all, as to assay: log2 fold change, soluble protein after heating vs DMSO (PISA); higher = thermal stabilisation; K562 cells, 10 uM, 30 min; active = over 0.2 and 3.5 SD of the protein, either way, in both replicates (recomputed)
Compound in assay [1]: NC(=O)Nc1cc(-c2cccc(F)c2)sc1C(=O)N[C@H]1CCCNC1
The method in brief: (§1)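 Aliquots of K562 cells (2×10^6 cells/mL) treated with 10 μM compound for 30 min were heated for 3 min over 48°C-58°C. After pooling and extraction in PBS with 0.5% NP-40 at 4°C, soluble protein from a 21,000xg, 90 min spin was quantified by TMTpro 16plex LC-MS/MS with channel sums equalised. Thermal stability is expressed against control samples, from duplicates, as a log2 fold change.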

Compound in assay [2]: NC(=O)c1cnc(N[C@@H]2CCCC[C@@H]2N)nc1Nc1cccc(-n2nccn2)c1
The gist of the method:
as §1

Compound in assay [3]: NC1(c2ccc(-c3nc4ccn5c(=O)[nH]nc5c4cc3-c3ccccc3)cc2)CCC1
The gist of the method: as §1

Compound in assay [4]: NCC(=O)Nc1ccc(-n2nc(C(F)(F)F)cc2-c2ccc3c(ccc4ccccc43)c2)cc1
The gist of the method: as §1

Compound in the next assay: Nc1ccccc1NC(=O)c1ccc(CNC(=O)OCc2cccnc2)cc1 [entinostat]
The gist of the method: as §1

Compound in another assay: O=C(CCCCCCC(=O)Nc1ccccc1)NO [vorinostat]
The gist of the method:
as §1

Compound in a further assay: O=C(CCCCCCNC(=O)c1cnc(N(c2ccccc2)c2ccccc2Cl)nc1)NO [citarinostat]
The gist of the method: as §1

Compound in a further assay: O=C(O)c1ccc2c(c1)nc(Nc1cccc(Cl)c1)c1ccncc12 [silmitasertib]
The gist of the method: as §1

Compound in assay [5]: O=C1NC(=O)C(c2cnc3ccccn23)=C1c1cn2c3c(cc(F)cc13)CN(C(=O)N1CCCCC1)CC2
The method in brief:
as §1

Compound in assay [6]: c1cc(OCCN2CCCCC2)cc(-c2n[nH]c3ccc(-c4nnc[nH]4)cc23)c1
The gist of the method:
as §1

This is one part of the list.

ANKHD1 isoform 6 (UniProt Q8IWZ3): the log2 fold change in assay [1] is inactive: 0.074; in [2], inactive: -0.023; in assay [3], inactive: 0.042; in [4], inactive: -0.021; with entinostat it was inactive: 0.066; in the assay with vorinostat it was inactive: 0. For the same target, the log2 fold change with citarinostat is inactive: 0.016; in the assay with silmitasertib, inactive: 0.119; in [5], inactive: 0.234; in [6] it was inactive: -0.087.

AP1S1 (UniProt P61966): the log2 fold change in assay [1] was inactive: -0.04; in assay [2], inactive: -0.111; in assay [3], inactive: -0.063; in assay [4] it was inactive: -0.051; in the assay with entinostat, inactive: 0.017; with vorinostat, inactive: 0.042. For the same target, the log2 fold change with citarinostat was inactive: -0.07; with silmitasertib, inactive: 0.088; in assay [5] it was inactive: 0.045; in [6] it was inactive: -0.109.

As for ANK1 isoform 14 (UniProt P16157), the log2 fold change in [1] was inactive: 0.08; in assay [2], inactive: -0.024; in assay [3], inactive: 0.134; in assay [4] it was inactive: 0.048; in the assay with entinostat, inactive: 0.059; in the assay with vorinostat, inactive: 0.108. Moreover, the log2 fold change was inactive: 0.054 with citarinostat, inactive: 0.18 in the assay with silmitasertib, inactive: 0.27 in assay [5] and inactive: -0.094 in [6].

APOBR (UniProt Q0VD83): the log2 fold change is inactive: -0.044 in [1]; inactive: -0.043 in assay [2]; inactive: 0.009 in [3]; inactive: 0.001 in [4]; inactive: -0.068 with entinostat; inactive: -0.055 in the assay with vorinostat. Also, the log2 fold change was inactive: -0.033 with citarinostat, inactive: -0.043 with silmitasertib, inactive: -0.056 in assay [5] and inactive: -0.043 in assay [6].

For APLP2 (UniProt Q06481), the log2 fold change was inactive: -0.13 in assay [1]; inactive: -0.021 in assay [2]; inactive: 0.036 in [3]; inactive: 0.054 in assay [4]; inactive: -0.063 with entinostat; inactive: -0.035 with vorinostat. In addition, the log2 fold change was inactive: 0.02 in the assay with citarinostat, inactive: 0 with silmitasertib, inactive: 0.074 in assay [5] and inactive: 0.046 in assay [6].

On to APOOL (UniProt Q6UXV4), for which the log2 fold change in assay [1] is inactive: 0.022; in [2] it was inactive: -0.005; in assay [3], inactive: 0.028; in assay [4] it was inactive: -0.012; in the assay with entinostat, inactive: -0.023; in the assay with vorinostat, inactive: 0.026. The log2 fold change with citarinostat was inactive: 0.04; in the assay with silmitasertib, inactive: 0.037; in [5], inactive: -0.017; in [6], inactive: -0.038.

As for AP2S1 (UniProt P53680), the log2 fold change was active: -0.386 in [1]; inactive: 0.102 in assay [2]; inactive: -0.009 in assay [3]; inactive: -0.039 in assay [4]; inactive: -0.066 with entinostat; inactive: 0.108 in the assay with vorinostat. For the same target, the log2 fold change with citarinostat was inactive: -0.077; with silmitasertib it was inactive: 0.011; in assay [5], active: -0.314; in assay [6], inactive: -0.217.

In the case of APOC1 (UniProt P02654), the log2 fold change in assay [1] is inactive: 0.01; in [2], inactive: -0.001; in assay [3], inactive: -0.036; in assay [4] it was inactive: 0.063; in the assay with entinostat, inactive: -0.006; with vorinostat, inactive: -0.221. Further, the log2 fold change with citarinostat was inactive: 0.024; in the assay with silmitasertib, inactive: -0.002; in [5] it was inactive: -0.078; in [6], inactive: -0.057.

In the case of ARHGDIA (UniProt P52565), the log2 fold change in [1] is inactive: -0.035; in assay [2], inactive: 0.065; in [3], inactive: -0.046; in assay [4], inactive: -0.007; with entinostat, inactive: -0.016; in the assay with vorinostat it was inactive: -0.03. Moreover, the log2 fold change with citarinostat was inactive: 0.014; with silmitasertib it was inactive: -0.02; in assay [5] it was inactive: -0.087; in assay [6], inactive: -0.015.

For the target ARAF (UniProt P10398), the log2 fold change in assay [1] was inactive: -0.059; in [2], inactive: 0.196; in assay [3], inactive: -0.119; in assay [4] it was inactive: 0.011; with entinostat, inactive: 0.062; with vorinostat it was inactive: 0.055. For the same target, the log2 fold change with citarinostat is inactive: 0.098; with silmitasertib it was inactive: 0.048; in [5], inactive: 0.017; in assay [6] it was inactive: -0.096.

In the case of ARF3 (UniProt P61204), the log2 fold change was inactive: 0.02 in assay [1]; inactive: -0.005 in assay [2]; inactive: -0.024 in [3]; inactive: 0.009 in assay [4]; inactive: -0.032 with entinostat; inactive: -0.009 in the assay with vorinostat. Further, the log2 fold change with citarinostat is inactive: 0.039; with silmitasertib, inactive: 0.007; in assay [5], inactive: -0.003; in assay [6], inactive: -0.029.

As for ANKRD54 (UniProt Q6NXT1), the log2 fold change is inactive: 0.035 in assay [1]; inactive: -0.011 in assay [2]; inactive: -0.044 in assay [3]; inactive: 0.149 in assay [4]; inactive: -0.012 with entinostat; inactive: 0.041 with vorinostat. Further, the log2 fold change with citarinostat was inactive: 0.045; with silmitasertib, inactive: 0.075; in assay [5] it was inactive: -0.053; in [6] it was inactive: -0.032.

As for ANAPC7 (UniProt Q9UJX3), the log2 fold change in [1] is inactive: 0.028; in assay [2], inactive: -0.02; in assay [3], inactive: -0.064; in assay [4], inactive: 0.093; with entinostat it was inactive: -0.001; with vorinostat, inactive: 0.087. The log2 fold change was inactive: 0.017 in the assay with citarinostat, inactive: 0.008 with silmitasertib, inactive: -0.029 in assay [5] and inactive: -0.068 in assay [6].

For the target ANKFY1 isoform 4 (UniProt Q9P2R3), the log2 fold change in assay [1] was inactive: 0.051; in [2], inactive: -0.095; in [3], inactive: -0.006; in [4], inactive: 0.006; with entinostat it was inactive: 0.082; in the assay with vorinostat, inactive: 0.374. For the same target, the log2 fold change is inactive: 0.008 in the assay with citarinostat, inactive: 0.058 in the assay with silmitasertib, inactive: 0.258 in assay [5] and inactive: -0.197 in assay [6].
